Results are given in words; binding and its absence hold for the method and conditions named. In cells and extracts the contact can be indirect. Some entries that bind do so weakly or less than the wild type.
Molecular target: CREB-binding protein (CBP) (human (endogenous in SK-N-MC)) (UniProt Q92793)
Assay: co-IP; CBP antibody immobilised on AminoLink Plus coupling resin, incubated overnight with SK-N-MC cell lysate (IP lysis/wash buffer); cells with or without PA-BSA; eluate analysed by western blot for NF-κB p65, HIF-1α and CBP

Protein sequences, listed by entry. Tags and fused reporters are not part of them.
UniProt Q92793: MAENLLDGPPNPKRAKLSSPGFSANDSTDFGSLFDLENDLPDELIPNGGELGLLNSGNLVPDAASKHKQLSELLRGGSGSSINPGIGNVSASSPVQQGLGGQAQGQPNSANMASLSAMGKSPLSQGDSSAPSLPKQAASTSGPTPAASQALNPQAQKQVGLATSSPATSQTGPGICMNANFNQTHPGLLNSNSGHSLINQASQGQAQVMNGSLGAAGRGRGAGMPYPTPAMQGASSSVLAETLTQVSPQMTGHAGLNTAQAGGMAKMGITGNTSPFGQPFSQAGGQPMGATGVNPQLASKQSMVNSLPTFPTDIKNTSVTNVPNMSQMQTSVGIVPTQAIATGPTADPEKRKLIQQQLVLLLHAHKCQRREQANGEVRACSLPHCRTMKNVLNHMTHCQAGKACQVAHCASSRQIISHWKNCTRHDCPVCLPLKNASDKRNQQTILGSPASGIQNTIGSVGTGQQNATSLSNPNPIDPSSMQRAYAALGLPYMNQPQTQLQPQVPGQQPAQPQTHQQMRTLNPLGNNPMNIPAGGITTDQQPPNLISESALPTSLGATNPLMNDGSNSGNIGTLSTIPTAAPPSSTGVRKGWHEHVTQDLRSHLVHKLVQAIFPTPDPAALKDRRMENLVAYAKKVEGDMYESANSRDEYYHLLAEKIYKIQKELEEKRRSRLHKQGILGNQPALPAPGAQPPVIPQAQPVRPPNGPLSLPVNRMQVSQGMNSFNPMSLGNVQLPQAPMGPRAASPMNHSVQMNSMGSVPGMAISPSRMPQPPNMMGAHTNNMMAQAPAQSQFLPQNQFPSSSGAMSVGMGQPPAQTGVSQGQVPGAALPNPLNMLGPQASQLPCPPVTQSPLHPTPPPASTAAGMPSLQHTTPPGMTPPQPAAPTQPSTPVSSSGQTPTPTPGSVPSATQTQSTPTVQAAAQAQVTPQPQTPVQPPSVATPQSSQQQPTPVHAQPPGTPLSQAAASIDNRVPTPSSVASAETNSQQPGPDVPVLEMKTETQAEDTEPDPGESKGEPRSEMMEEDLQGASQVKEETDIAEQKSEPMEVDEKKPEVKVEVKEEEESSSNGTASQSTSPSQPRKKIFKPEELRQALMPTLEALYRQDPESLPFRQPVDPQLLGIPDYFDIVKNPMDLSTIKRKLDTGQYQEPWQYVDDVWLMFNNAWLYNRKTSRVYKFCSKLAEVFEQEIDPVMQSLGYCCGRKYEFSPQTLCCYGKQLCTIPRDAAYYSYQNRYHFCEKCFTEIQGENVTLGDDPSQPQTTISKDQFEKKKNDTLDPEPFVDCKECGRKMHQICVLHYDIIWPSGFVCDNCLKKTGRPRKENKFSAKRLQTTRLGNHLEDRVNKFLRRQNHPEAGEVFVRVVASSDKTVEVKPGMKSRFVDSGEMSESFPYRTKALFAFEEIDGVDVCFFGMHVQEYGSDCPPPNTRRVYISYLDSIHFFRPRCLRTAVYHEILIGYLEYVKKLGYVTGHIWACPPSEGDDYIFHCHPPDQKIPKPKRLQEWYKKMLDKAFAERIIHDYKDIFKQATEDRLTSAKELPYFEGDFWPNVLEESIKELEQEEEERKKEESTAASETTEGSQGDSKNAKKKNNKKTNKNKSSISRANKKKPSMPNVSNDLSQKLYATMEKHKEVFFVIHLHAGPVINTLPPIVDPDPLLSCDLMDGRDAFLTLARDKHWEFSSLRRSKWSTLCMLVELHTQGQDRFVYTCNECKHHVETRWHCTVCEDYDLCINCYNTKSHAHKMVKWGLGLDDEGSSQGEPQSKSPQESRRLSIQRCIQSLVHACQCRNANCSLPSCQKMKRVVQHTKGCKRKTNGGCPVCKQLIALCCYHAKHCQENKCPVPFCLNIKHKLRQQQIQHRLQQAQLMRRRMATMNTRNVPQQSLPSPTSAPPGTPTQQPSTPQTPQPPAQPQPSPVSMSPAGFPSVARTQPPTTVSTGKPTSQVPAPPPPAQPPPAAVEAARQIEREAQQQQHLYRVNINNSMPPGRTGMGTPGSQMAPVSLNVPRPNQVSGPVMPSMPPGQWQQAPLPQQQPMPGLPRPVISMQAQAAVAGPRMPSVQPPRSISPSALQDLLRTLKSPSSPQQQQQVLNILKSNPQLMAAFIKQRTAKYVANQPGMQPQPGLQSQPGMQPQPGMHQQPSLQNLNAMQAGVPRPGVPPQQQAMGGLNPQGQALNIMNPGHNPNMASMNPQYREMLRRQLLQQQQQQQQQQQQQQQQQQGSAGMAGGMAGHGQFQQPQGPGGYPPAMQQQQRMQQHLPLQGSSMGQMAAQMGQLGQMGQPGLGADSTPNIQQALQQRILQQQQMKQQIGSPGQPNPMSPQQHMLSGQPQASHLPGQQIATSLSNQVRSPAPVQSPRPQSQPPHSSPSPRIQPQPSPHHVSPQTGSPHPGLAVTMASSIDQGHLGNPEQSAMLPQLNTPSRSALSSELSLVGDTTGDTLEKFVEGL
UniProt Q16665: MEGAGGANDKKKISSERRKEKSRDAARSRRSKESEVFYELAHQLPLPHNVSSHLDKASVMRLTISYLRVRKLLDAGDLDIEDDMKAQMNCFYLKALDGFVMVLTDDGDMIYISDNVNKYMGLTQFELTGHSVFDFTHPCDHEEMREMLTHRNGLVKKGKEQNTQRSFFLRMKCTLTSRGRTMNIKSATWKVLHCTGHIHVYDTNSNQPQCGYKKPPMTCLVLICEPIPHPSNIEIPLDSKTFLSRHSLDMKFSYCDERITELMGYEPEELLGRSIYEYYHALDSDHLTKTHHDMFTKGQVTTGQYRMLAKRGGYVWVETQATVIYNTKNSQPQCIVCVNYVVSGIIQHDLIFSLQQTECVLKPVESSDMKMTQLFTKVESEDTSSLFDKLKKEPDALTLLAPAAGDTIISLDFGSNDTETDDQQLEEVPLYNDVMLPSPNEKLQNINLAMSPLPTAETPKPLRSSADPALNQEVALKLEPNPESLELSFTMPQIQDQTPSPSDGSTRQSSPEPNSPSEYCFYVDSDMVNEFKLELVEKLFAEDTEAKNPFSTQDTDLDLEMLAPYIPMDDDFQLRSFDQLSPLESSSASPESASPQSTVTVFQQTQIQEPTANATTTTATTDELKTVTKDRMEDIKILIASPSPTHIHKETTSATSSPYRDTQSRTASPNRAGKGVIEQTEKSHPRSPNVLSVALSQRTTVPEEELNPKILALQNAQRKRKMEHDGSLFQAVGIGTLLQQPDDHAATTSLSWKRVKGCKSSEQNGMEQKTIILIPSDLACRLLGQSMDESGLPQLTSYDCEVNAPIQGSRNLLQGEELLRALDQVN

binding: binds
Substance: hypoxia-inducible factor 1-alpha (HIF-1α) (from UniProt Q16665 1-826)

— PMC5489526
